The supplement of paper PMC12889115
The other results are listed elsewhere or left out. Values are raw readings; no control value is given beside them.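 Primary screen: polymyxin B was added at a level permeabilizing Salmonella outer membranes while sparing inner membranes. DMSO wells, both with and without polymyxin B, established maximum growth. Plate-to-plate variation meant each plate was ranked on its own, and the lowest-OD600 compounds were selected as hits.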

Tested on: Salmonella enterica serovar Typhimurium SL1344
Test: bacterial growth OD600 after 18 h with compound and polymyxin B; higher = more bacterial growth (less inhibition)
Conditions: 50 µM, Mueller-Hinton broth

SMILES | bacterial growth OD600 (polymyxin B 0.75 µg/mL) | bacterial growth OD600 (polymyxin B 1 µg/mL)
C=CCC(O)(CC=C)CNC1CCN(c2ccc(C(=O)NCCN3CCOCC3)cc2)CC1 | 0.854 | –
COC(=O)c1ccc(C(=O)N2CCCC(Nc3ccc(F)cc3)C2)cc1 (stereo unspecified) | – | 0.884
O=C(c1cccs1)N1CCC(C2CCN(c3ncccn3)CC2)C1 (stereo unspecified) | 0.749 | –
CCOC(=O)N1CCN(C(=O)C2CCC(=O)N(CCCN3CCOCC3)C2)CC1 (stereo unspecified) | – | 0.88
O=C(CCc1ccccc1F)NC1CCCN(C2CCCCCC2)C1 (stereo unspecified) | – | 0.957
Cc1cc(C)c(CN2CCC(N3CCCC(C(=O)NC4CC4)C3)CC2)cc1C (stereo unspecified) | 0.818 | –
Fc1ccc(CC2CCN(Cc3nc(Cc4cccc(F)c4)no3)CC2)cc1 | – | 0.821
CCN1CCCC1CNC(=O)CCC1CCN(C(=O)c2cc(C)n(C)n2)CC1 (stereo unspecified) | 0.794 | –
O=C(COc1ccccc1)Nc1ccc(N2CCC(NCCC3=CCCCC3)CC2)cc1 | 0.877 | –
CN(C1CCN(Cc2ccccn2)CC1)C1CCCN(CCc2ccccc2)C1 (stereo unspecified) | – | 0.976
COc1ccc(N2CCN(C3CCCN(CC4CC4)C3)CC2)cc1 (stereo unspecified) | – | 1.33
C=CCNC(=O)N1CCC(Cc2ccc(Cl)cc2)(C(=O)OCC)CC1 | – | 0.043
Cc1nc(N2CCCC2C(=O)NCC2(O)CCCCC2)nc2cc(S(C)(=O)=O)ccc12 (stereo unspecified) | 0.756 | –
O=C(CCc1ccccc1F)N1CCc2[nH]nc(-c3cccc(F)c3)c2C1 | 0.005 | –
CC(C)CCN(C)C(=O)c1coc(COc2ccc(F)cc2)n1 | – | 0.921
COC(=O)[C@H](Cc1ccccc1)NC(=O)CCC1(Cc2ccc(OC)c3ccccc23)CCC(=O)N1 (stereo partly specified) | 0.845 | –

SMILES | bacterial growth OD600 (polymyxin B 0.75 µg/mL) | bacterial growth OD600 (polymyxin B 1 µg/mL)
CCCc1cc(CNC(=O)c2ccc(NC3CCOC(C)(C)C3)nc2)on1 (stereo unspecified) | 0.889 | –
Cc1cc(C)n(CCN(C)C(=O)c2cc(Cn3ccnc3C(C)C)[nH]n2)n1 | – | 1.08
Cc1ccccc1CCC1CCCN(C(=O)c2cccnc2)C1 (stereo unspecified) | 0.007 | –
Cc1onc(-c2ccccc2)c1C(=O)N1CCCC(Nc2ccc3c(c2)OCCO3)C1 (stereo unspecified) | – | 0.913
COc1ccc(-c2ccccc2NC(=O)C2CCCN(C3CCCC3)C2)cc1 (stereo unspecified) | – | 0.886
COc1cccc(NC(=O)CCC2CCN(C(=O)c3ccoc3)CC2)c1 | – | 1.25
Cc1ccccc1CCN1CCCC(CN(C)C(=O)/C=C/c2cccnc2)C1 (stereo unspecified) | 1.01 | –
Cn1cc(CN2CCC(C(=O)Nc3ccc(-c4nc5ccccc5o4)cc3)CC2)cn1 | – | 1.1
CCc1nc(C)c(C(=O)NC2CC(=O)N(Cc3cccc(F)c3)C2)o1 (stereo unspecified) | – | 0.914
Cc1n[nH]c(C)c1CNC(=O)c1cc(COc2cccc(F)c2)[nH]n1 | 0.872 | –
COc1ccc(NC(=O)CCC2CCCN(Cc3ccc4nonc4c3)C2)cc1Cl (stereo unspecified) | – | 0.808
COC(=O)C1CCN(C(=O)CC2(c3ccc(-c4ccccc4)cc3)CC(=O)N(C3CC3)C2=O)CC1 (stereo unspecified) | 0.585 | –
Cc1cc(C)n(Cc2cc(C(=O)NCCc3cnn(C)c3)n[nH]2)n1 | – | 1.14
Cc1nnc(CN(C)Cc2cn(Cc3ccccc3)nc2-c2ccc3c(c2)OCO3)o1 | – | 0.984
COCC1CCN(C(=O)CCc2nnc(C3(c4ccc(Cl)cc4)CCC3)o2)CC1 | 0.756 | –

Copied from above, 2 compounds:
SMILES | bacterial growth OD600 (polymyxin B 0.75 µg/mL) | bacterial growth OD600 (polymyxin B 1 µg/mL)
C=CCC(O)(CC=C)CNC1CCN(c2ccc(C(=O)NCCN3CCOCC3)cc2)CC1 | 0.854 | –
COC(=O)c1ccc(C(=O)N2CCCC(Nc3ccc(F)cc3)C2)cc1 (stereo unspecified) | – | 0.884
